This note sets out measurements from PMC7679391.

Amino acid sequences for entries named in this document (tags omitted).
UniProt Q15717: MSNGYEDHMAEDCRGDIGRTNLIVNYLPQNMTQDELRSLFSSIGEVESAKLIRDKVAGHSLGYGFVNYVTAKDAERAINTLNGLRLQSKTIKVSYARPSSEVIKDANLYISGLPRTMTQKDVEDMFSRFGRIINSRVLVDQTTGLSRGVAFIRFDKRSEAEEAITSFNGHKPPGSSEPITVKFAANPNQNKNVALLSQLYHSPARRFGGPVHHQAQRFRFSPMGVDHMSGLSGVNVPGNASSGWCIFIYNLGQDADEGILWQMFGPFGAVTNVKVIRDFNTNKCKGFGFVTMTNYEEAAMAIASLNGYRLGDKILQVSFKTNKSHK
UniProt Q9Y297: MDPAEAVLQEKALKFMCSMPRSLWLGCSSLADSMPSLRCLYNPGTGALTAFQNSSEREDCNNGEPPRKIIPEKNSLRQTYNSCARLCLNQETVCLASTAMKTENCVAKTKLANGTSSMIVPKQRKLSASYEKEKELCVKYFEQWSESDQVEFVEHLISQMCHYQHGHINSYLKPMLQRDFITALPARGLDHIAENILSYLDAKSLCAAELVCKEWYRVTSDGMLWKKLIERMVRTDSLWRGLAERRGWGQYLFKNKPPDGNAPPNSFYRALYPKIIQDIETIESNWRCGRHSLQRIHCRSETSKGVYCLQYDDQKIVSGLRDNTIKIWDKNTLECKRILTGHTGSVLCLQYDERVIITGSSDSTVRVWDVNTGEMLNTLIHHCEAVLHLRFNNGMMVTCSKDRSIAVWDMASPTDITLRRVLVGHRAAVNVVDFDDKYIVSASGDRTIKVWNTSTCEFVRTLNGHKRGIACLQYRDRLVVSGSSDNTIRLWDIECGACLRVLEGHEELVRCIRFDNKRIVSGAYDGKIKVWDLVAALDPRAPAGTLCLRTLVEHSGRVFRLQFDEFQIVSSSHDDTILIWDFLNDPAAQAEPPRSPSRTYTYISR

The target of test [1] is Human antigen R (HuR) (human (endogenous in SW-13)) (UniProt Q15717). Briefly: co-IP; endogenous proteins of SW-13 cells transfected with ASB16-AS1 siRNA1 or siRNA2; immunoprecipitation with either anti-HuR or anti-BTRC antibody, western blot for the other protein; knock-down of lncRNA ASB16-AS1 reduces the co-precipitate. For orientation: In western blotting, separated proteins are transferred to a membrane and probed.

Test [2] deals with ubiquitin E3 ligase BTRC (β-TrCP1) (human (endogenous in SW-13)) (UniProt Q9Y297). Described as above.

Results are given in words; binding and its absence hold for the method and conditions named. Binding seen in cells or lysates may run through a third protein. Some entries that bind do so weakly or less than the wild type.

On to “ubiquitin E3 ligase BTRC (β-TrCP1) (from UniProt Q9Y297 1-605)”, for which the binding result in test [1] is reported as “binds”. On to “Human antigen R (HuR) (from UniProt Q15717 1-326)”, for which the binding result in test [2] is reported as “binds”.
